Experiment in all cases: co-IP; quantitative multiplex co-immunoprecipitation (QMI): IP antibodies on Luminex beads incubated overnight at 4 C with NP-40 lysate of P2 synaptosomes from mouse hippocampus, probed with biotinylated antibodies and streptavidin-PE, read on a flow cytometer; four ASD models (Shank3B-/-, Shank3 delta ex4-9+/-, Ube3a2xTG, E12.5 VPA) against littermate controls; only changes against control are told
For orientation: Flow cytometry measures light scatter and fluorescence of single cells or particles in a stream.

Amino acid sequences for entries named in this document (tags omitted).
UniProt P26450: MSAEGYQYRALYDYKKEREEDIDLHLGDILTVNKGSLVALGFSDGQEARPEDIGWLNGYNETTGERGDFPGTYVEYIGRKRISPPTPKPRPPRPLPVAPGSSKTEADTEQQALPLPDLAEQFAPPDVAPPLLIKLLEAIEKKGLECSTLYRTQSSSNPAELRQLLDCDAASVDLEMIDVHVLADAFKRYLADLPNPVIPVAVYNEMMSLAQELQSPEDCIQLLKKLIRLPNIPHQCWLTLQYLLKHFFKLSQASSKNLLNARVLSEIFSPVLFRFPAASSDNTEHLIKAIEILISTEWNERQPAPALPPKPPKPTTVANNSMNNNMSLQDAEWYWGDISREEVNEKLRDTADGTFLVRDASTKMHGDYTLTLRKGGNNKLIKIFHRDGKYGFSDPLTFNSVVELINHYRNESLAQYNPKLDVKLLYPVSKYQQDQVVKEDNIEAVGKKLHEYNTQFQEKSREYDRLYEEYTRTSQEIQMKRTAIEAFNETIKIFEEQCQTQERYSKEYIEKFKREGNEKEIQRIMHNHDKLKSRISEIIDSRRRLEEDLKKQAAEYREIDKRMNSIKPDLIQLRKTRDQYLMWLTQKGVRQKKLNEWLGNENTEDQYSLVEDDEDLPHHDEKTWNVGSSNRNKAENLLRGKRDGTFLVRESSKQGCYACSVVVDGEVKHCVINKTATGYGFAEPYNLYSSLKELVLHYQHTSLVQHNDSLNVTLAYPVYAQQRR

Test [1] concerns the target T1, Homer1 (mouse (endogenous in mouse brain)) (UniProt Q9Z2Y3).
T1 sequence: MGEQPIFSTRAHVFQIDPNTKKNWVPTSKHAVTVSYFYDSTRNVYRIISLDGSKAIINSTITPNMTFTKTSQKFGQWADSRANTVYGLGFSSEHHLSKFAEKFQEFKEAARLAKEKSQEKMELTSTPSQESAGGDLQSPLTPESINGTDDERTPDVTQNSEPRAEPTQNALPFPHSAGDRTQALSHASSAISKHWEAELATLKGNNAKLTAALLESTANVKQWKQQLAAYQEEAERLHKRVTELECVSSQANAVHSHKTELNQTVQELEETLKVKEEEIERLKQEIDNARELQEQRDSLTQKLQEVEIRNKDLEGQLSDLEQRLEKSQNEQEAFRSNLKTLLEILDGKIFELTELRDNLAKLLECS

Test [2] has as its target PI3K (p85alpha regulatory subunit) (mouse (endogenous in mouse brain)) (UniProt P26450).
Test [3] addresses T2, Ube3A (mouse (endogenous in mouse brain)) (UniProt O08759).
T2 sequence: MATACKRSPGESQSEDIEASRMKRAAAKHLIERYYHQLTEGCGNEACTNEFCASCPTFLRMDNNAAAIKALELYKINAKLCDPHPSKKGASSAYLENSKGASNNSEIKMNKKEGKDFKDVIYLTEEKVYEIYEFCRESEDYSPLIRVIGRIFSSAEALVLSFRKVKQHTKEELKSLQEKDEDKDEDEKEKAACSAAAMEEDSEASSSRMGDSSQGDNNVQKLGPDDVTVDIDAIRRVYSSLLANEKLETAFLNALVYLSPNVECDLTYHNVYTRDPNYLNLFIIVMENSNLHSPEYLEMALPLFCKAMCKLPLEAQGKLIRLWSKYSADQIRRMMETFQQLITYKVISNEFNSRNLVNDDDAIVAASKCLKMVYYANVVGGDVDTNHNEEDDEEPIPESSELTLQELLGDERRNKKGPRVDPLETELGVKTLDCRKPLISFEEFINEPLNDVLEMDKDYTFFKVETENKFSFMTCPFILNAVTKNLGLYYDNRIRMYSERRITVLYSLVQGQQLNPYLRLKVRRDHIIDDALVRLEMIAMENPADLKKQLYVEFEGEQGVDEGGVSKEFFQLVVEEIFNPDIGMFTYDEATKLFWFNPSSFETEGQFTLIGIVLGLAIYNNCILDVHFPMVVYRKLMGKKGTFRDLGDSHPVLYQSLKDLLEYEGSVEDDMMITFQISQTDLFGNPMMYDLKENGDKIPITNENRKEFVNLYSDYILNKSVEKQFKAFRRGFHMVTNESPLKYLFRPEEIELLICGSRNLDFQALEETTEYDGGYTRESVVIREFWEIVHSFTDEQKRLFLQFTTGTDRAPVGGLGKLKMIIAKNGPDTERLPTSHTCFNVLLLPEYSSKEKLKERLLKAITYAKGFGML

These are yes or no findings as the source states them, for the method shown. In cells and extracts the contact can be indirect. Some entries that bind do so weakly or less than the wild type.

B1: SynGAP1 (protein, UniProt F6SEU4 1-1340)
chain: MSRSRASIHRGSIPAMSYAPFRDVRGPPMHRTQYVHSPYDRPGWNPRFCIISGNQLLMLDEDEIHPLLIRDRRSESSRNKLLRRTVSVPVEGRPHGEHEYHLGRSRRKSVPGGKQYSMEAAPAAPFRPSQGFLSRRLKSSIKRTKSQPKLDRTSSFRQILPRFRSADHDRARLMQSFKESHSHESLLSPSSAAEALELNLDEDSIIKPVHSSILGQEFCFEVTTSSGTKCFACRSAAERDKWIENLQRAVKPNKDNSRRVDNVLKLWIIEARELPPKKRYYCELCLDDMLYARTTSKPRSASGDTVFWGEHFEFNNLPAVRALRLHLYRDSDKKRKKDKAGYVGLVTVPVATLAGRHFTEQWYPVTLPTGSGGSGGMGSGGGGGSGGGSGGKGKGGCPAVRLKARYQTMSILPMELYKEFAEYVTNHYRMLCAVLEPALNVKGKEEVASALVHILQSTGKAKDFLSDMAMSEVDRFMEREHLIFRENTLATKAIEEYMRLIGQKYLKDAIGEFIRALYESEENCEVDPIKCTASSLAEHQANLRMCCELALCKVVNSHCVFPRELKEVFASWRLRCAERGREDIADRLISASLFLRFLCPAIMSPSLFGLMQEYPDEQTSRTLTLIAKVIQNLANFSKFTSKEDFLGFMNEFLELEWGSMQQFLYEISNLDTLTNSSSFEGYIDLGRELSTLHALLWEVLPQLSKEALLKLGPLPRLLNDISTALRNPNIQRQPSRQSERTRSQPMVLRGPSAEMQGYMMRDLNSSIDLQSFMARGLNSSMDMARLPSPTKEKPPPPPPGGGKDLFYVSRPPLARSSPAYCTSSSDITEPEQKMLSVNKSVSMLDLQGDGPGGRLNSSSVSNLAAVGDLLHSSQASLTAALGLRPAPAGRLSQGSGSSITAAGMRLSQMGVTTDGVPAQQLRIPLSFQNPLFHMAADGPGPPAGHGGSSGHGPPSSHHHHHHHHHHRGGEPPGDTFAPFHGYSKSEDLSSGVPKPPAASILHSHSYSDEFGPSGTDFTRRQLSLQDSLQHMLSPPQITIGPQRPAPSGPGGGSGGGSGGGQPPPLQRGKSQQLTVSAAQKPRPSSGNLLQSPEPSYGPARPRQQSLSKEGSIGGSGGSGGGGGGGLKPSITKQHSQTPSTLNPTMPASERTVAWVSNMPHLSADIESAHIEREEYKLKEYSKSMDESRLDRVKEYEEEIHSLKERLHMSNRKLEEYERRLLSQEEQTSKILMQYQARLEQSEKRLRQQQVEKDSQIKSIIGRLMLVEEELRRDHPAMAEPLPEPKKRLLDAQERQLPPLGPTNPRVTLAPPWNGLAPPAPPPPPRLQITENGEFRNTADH
B1: the binding result in test [1] and in test [2] was “binds” in each case.

B2: Homer1 (protein, UniProt Q9Z2Y3 1-366)
chain: MGEQPIFSTRAHVFQIDPNTKKNWVPTSKHAVTVSYFYDSTRNVYRIISLDGSKAIINSTITPNMTFTKTSQKFGQWADSRANTVYGLGFSSEHHLSKFAEKFQEFKEAARLAKEKSQEKMELTSTPSQESAGGDLQSPLTPESINGTDDERTPDVTQNSEPRAEPTQNALPFPHSAGDRTQALSHASSAISKHWEAELATLKGNNAKLTAALLESTANVKQWKQQLAAYQEEAERLHKRVTELECVSSQANAVHSHKTELNQTVQELEETLKVKEEEIERLKQEIDNARELQEQRDSLTQKLQEVEIRNKDLEGQLSDLEQRLEKSQNEQEAFRSNLKTLLEILDGKIFELTELRDNLAKLLECS
In the case of B2, the binding entry in test [3] is reported as “binds”.

(Values after publication PMC6139139.)
